The target of assay [1] is T1, recombinant human CD73-His extracellular domain recombinant protein (soluble dimer) (human) (UniProt P21589).
T1 sequence: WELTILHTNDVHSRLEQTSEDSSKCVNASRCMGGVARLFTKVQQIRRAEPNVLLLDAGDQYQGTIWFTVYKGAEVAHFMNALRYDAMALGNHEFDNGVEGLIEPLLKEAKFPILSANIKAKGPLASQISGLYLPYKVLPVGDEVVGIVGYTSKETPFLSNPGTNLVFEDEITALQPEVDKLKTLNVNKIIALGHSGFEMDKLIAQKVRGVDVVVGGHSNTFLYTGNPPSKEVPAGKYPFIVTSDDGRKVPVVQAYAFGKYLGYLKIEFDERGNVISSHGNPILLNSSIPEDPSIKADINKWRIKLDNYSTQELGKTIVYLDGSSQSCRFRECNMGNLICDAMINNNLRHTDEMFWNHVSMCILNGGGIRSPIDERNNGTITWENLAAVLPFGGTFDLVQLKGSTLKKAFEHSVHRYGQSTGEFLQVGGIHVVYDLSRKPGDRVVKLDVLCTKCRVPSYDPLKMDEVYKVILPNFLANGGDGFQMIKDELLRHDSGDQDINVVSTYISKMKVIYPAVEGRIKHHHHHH
Put plainly: ELISA on coated recombinant human CD73.

Assay [2] concerns the target T2, human CD73 mutant 2 (human) (UniProt P21589).
T2 sequence: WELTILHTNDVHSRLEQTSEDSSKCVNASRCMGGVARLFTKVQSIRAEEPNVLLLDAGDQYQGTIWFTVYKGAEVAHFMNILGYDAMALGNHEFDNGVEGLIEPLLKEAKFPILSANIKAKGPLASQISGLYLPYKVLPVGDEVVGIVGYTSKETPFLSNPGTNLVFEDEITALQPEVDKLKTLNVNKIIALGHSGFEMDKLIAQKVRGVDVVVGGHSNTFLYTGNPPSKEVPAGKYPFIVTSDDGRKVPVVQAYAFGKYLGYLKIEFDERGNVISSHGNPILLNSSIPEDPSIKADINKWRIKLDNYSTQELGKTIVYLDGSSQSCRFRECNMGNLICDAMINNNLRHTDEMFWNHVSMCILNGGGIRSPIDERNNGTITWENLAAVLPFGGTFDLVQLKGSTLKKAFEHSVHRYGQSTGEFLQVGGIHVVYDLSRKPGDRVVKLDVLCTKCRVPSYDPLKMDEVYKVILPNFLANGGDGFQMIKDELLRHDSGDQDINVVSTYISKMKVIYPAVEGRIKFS
Put plainly: Figure 7 legend: flow cytometry titration on cells expressing CD73 mutant 2. On the technique in general: In flow cytometry, cells or beads pass a laser one at a time.

Positions count from the first letter of the chain named. No constants are given. Whether binding was seen depends on the method and setting. Some results given as binding are weak or reduced against the parent protein; the word gives no strength. For some of these results: Sequences can lack the tags named with a protein.

B1: antibody 11E1 (antibody, V domains shown)
VH: EIQLQQSGPELVKPGASVKVSCKASGYAFTSYNMYWVKQSHGKSLEWIGYIDPYNGGTSYNQKFKGKATLTVDKSSSTAYMHLNSLTSEDSAVYYCARGYGNYKAWFAYWGQGTLVTVSA
VL: DAVMTQTPKFLLVSAGDRVTITCKASQSVTNDVAWYQQKPGQSPKLLIYYASNRYTGVPDRFTGSGYGTDFTFTISTVQAEDLAVYFCQQDYSSLTFGAGTKLELK
As to B1, the binding result in assay [1] is given as “binds”.

B2: antibody 8C7 (antibody, V domains shown)
VH: B1 VH with I2V, T30A, Y35N, E46D, T58S, Q62L, K63T, S77T
VL: SIVMTPTPKFLLVSAGDRVTITCKASQSVSNDVAWYQQKPGQSPKLLIYYASTRYTGVPDRFTGSGYGTDFTFTISTVQAEDLAVYFCQQDYSSLTFGAGTKLELKR
On to B2, for which the binding result in assay [1] is “binds”.

B3: antibody 6E1 (antibody, V domains shown)
VH: B1 VH with I2F, S44R, T58S, S85N, G101N
VL: B1 VL with D1S, A2I, V78M
On to B3, for which the binding result in assay [1] was “binds”.

B4: antibody 3C12 (antibody, V domains shown)
VH: B1 VH with E1Q, T30A, Y35N, E46D, T58S, Q62L, K63T, S77T
VL: B2 VL with S1D, I2V, P6Q
For B4, the binding entry in assay [2] is “binds”.

Values taken from EP3259288B1 (Innate Pharma, dated 2026).
